Results are given in words; binding and its absence hold for the method and conditions named. Some results given as binding are weak or reduced against the parent protein; the word gives no strength. Sequences can lack the tags named with a protein.
Target: T1, hTLT-1 ECD-His (human, UniProt Q86YW5 16-162)
T1 construct: Extracellular domain of human TLT-1 with C-terminal His-6 tag; the range 16-168 is computed from these; also called TLT-1-His; His tagged human TLT1
T1 sequence: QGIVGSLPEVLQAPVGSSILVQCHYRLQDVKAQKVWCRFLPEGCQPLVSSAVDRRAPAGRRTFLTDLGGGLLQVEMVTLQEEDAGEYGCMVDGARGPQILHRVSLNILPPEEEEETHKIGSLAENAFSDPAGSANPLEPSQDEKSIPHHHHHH
Test: SPR Biacore T100

Protein sequences, listed by entry. Tags and fused reporters are not part of them. Lines headed by an entry give the natural chain unless they say otherwise; changes in a name come on top.
UniProt P02671: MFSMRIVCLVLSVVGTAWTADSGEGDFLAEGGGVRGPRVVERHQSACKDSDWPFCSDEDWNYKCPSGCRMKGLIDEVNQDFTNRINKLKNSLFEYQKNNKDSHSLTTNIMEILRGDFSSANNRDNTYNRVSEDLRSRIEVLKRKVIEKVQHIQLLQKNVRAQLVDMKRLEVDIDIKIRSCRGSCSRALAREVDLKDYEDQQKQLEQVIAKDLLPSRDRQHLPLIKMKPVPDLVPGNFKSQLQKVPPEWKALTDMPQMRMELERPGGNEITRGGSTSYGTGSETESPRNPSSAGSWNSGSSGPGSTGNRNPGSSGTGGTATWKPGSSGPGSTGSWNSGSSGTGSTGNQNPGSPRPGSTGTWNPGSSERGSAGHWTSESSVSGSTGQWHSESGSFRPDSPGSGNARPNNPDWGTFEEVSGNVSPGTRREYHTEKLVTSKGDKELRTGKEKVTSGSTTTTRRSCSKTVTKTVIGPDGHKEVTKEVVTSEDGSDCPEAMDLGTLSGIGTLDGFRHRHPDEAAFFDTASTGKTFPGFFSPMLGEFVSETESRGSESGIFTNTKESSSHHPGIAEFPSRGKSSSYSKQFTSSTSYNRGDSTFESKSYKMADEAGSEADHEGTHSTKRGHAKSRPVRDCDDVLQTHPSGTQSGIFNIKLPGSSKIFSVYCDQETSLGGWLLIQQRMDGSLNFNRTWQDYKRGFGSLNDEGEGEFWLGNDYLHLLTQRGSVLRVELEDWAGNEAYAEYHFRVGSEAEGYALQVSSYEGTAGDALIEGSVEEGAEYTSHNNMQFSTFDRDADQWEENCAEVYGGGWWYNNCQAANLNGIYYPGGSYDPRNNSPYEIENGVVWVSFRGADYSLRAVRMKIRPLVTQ

binding: binds
Substance: human fibrinogen (from UniProt P02671 20-629; P02675 31-491; P02679 27-437) (ligand)

Reference: patent US20190083587A1 (Novo Nordisk, published 2019)
